Data on five substances can be found in PMC13064811, “The Role of Disulfide Bonds in the GluN1 Subunit in the Early Trafficking and Functional Properties of GluN1/GluN2 and GluN1/GluN3 NMDA Receptors” (The Journal of Neuroscience, 2026).

By UniProt entry, the sequences of proteins in these tests, tags left out. Where a name states a change or a piece, a line headed by the entry shows the natural chain unless it says otherwise. Residues count along the entry.
UniProt Q9R1M7, residues 24-1135: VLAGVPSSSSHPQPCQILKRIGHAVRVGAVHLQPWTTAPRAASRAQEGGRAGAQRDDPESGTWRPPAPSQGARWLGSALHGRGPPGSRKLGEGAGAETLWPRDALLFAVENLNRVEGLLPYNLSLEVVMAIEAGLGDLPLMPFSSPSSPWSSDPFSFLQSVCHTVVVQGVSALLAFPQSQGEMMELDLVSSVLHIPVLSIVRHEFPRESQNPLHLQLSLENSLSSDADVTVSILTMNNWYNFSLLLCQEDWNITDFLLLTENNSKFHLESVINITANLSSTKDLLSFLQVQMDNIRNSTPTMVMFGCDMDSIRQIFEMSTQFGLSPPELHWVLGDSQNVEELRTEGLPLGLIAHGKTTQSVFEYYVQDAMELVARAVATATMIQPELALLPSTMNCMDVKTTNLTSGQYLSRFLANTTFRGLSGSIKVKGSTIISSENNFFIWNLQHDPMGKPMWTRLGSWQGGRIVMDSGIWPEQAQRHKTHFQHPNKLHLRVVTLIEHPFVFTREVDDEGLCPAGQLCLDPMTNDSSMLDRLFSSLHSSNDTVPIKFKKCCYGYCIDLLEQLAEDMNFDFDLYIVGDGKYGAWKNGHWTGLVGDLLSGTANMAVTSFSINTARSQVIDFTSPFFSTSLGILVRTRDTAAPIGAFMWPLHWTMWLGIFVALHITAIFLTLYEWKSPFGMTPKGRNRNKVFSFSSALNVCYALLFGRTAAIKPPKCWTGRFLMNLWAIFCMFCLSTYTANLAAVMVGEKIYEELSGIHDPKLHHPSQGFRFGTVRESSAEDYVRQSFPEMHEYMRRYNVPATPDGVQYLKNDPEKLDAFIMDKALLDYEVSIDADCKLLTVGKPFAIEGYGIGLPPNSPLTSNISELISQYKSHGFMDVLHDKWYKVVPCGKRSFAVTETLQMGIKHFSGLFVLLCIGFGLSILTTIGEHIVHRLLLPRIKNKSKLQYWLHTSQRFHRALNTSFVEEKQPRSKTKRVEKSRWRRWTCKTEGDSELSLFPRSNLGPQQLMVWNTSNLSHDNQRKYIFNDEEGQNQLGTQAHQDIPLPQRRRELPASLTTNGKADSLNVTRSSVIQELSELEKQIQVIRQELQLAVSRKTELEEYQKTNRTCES

In assay [1] the target is WT YFP-hGluN1-1a subunit (human) (UniProt Q05586). The experiment in a line: co-IP; primary rat hippocampal neurons infected with lentivirus for 48 h; solubilised with 0.5% sodium deoxycholate; immunoprecipitated with anti-GFP antibody and protein A-Sepharose at 4°C; Western blot with anti-GluN2A, anti-GluN2B, anti-GluN3A, anti-GFP. (A western blot detects proteins with antibodies after separation by electrophoresis.)

Assay [2] concerns the target YFP-hGluN1-1a-C744Y subunit (human) (UniProt Q05586). The description is as above.
Assay [3] has as its target endogenous GluN3A subunit (rat (endogenous in primary hippocampal neurons)) (UniProt Q9R1M7). The assay is described as follows: co-IP; primary rat hippocampal neurons infected with lentivirus for 48 h; total lysate, 0.5% sodium deoxycholate; immunoprecipitated with anti-GluN3A antibody and protein A-Sepharose at 4°C; Western blot with anti-GluN2A, anti-GluN2B, anti-GFP.

No constants are given. Whether binding was seen depends on the method and setting. In cells and extracts the contact can be indirect. Some binding calls cover weakened binding; strength is not graded here.

Take “endogenous GluN3A subunit (from UniProt Q9R1M7-1 24-1135) (receptor)”: the binding result in assay [1] and in assay [2] was “binds” in each case.

“endogenous GluN2A subunit (from UniProt Q00959 23-1464) (receptor)”: the binding entry in assay [1], in assay [2] and in assay [3] was “binds” throughout.

“endogenous GluN2B subunit (from UniProt Q00960 27-1482) (receptor)”: the binding entry in assay [1], in assay [2] and in assay [3] was “binds” throughout.

On to “WT YFP-hGluN1-1a subunit (from UniProt Q05586-1 19-938) (receptor)”, for which, in assay [3], the binding result is reported as “binds”.

As to “YFP-hGluN1-1a-C744Y subunit (from UniProt Q05586-1 19-938) (receptor)”, in assay [3], the binding result is given as “binds”.
